The campaign covered roughly 580,000 compounds. About 6,100 (1.1%) were called active. Inconclusive results, whose numbers are uncertain, are shown with a selection of clear calls. Calls come from the whole dose curve; as a rule, active = well fitted inhibition curve with a large enough effect; inconclusive = small, poorly fitted or top-dose-only effect, or another doubt; inactive = no such curve, though single readings can be large or run the other way. Potencies of inconclusive entries are doubtful fits and often do not repeat.
Molecular target: Polyunsaturated fatty acid lipoxygenase ALOX12 (Homo sapiens) (UniProt P18054)
Assay: Primary qHTS assay for inhibitors of human arachidonate 12S-lipoxygenase (ALOX12): Round 2
Conditions: purified 12hLO, xylenol orange hydroperoxide absorbance; series mostly up to 108 µM
Summary of the method: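 Hydroperoxide product was detected by ferrous iron/xylenol orange as the 573 to 405 nm absorbance ratio. Arachidonic acid at 40 uM (final) was turned over for 30 min at room temperature by 150 nM human 12hLO, pH 7.0 Hepes buffer, after 15 min compound preincubation.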
Potency is the fitted concentration of half-maximal effect.

Chains of the proteins cited; added tags and fusions are not shown. Lines headed by an entry give the natural chain unless they say otherwise; changes in a name come on top.
UniProt P18054: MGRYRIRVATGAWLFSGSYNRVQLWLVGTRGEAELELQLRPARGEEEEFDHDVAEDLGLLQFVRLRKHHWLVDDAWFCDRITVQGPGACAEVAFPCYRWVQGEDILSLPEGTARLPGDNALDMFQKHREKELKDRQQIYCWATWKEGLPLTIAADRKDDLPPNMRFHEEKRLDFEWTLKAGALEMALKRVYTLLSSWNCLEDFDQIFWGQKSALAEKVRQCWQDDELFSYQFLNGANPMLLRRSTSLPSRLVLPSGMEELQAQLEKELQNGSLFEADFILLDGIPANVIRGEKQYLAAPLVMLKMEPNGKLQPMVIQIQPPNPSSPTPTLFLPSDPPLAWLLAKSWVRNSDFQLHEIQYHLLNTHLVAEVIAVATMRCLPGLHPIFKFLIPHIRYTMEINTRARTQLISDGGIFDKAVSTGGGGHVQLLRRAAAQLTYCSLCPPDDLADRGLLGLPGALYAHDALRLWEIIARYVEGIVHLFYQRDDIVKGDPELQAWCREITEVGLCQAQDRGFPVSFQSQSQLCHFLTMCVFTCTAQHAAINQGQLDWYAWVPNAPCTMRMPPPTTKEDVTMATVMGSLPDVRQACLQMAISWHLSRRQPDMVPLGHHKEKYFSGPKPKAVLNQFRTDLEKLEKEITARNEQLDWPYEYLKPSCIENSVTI

Structure (SMILES)	Potency
CCOc1cc(CNCCCN2CCOCC2)cc(Br)c1OCc1ccccc1Cl	inconclusive: 44.7 µM [inhibitor, partial curve, poor fit]
CCCNC(=O)C1Cc2cc(S(=O)(=O)N3CCCCCC3)ccc2N1C(C)=O (stereo not drawn)	inconclusive: 141 µM [inhibitor, partial curve, poor fit]
Cc1ccc(C)c(S(=O)(=O)N2CCN(C(=O)CCc3c[nH]c4ccccc34)CC2)c1	inconclusive: 79.4 µM [inhibitor, partial curve, poor fit]
COc1ccccc1CNc1ncnc2ccc(-c3ccccc3OC)cc12	inconclusive: 20 µM [inhibitor, partial curve, poor fit]
CC(=O)Oc1ccc(OC(C)=O)c(SCCCCCN2CCOCC2)c1	inconclusive: 14.1 µM [inhibitor, full curve]
Cc1cnc(C=O)c2cccc([N+](=O)[O-])c12	inconclusive: 70.8 µM [inhibitor, partial curve, poor fit]
CC(=O)c1cccc(NS(=O)(=O)c2cc3c(cc2C)NC(=O)CO3)c1	inactive
O=C(Cc1cnc[nH]1)N1Cc2ccccc2CC2(CCCN(CC3CCNCC3)C2)C1 (stereo not drawn)	inconclusive: 0.891 µM [inhibitor, full curve, poor fit]
Cc1ccc(NC(=O)Cn2c(-c3ccc(Cl)cc3)nc(C)c(CCO)c2=O)c(C)c1	inconclusive: 20 µM [inhibitor, partial curve, poor fit]
COc1ccccc1OCCOc1ccc(/C=C2\C(=N)N3N=C(S(C)(=O)=O)SC3=NC2=O)cc1	inconclusive: 7.08 µM [inhibitor, partial curve, poor fit]
CC(=O)NNC(=O)CCn1nnc(-c2ccc(Cl)cc2)n1	inactive
Cn1c(N)c(C(=O)CSc2nnc(C3CC3)n2Cc2ccccc2)c(=O)[nH]c1=O	inconclusive: 100 µM [inhibitor, single point]
COc1ccc(C2=NS(=O)(=O)N(C)C(C(=O)N(C)Cc3ccccc3)=C2)cc1OC	inactive
COc1ccc(S[C@]2(C(=O)N(C)C)CC(=O)N(c3ccc4ccccc4c3)[C@@H]2c2ccc(OC)cc2)cc1	inconclusive: 17.8 µM [inhibitor, partial curve, poor fit]
CCc1cccc(CC)c1NC(=O)COc1ncnc2ccccc12	inactive
CCCS(=O)(=O)N1CCCC(C(=O)NCCc2ccc(OC)c(OC)c2)C1 (stereo not drawn)	inconclusive: 39.8 µM [inhibitor, single point]
O=C(Nc1cccc(F)c1)Nc1ccnn1C1CCN(C(=O)C2CCC2)CC1	inactive
O=C(NCc1ccccn1)c1ccc(-c2ccc(N3CCCCC3)nc2)cc1	inactive
O=C(COc1ccc(F)cc1)Nc1ccc2c(=O)c3cccc(F)c3oc2c1	inactive
COc1ncccc1-c1cc(-c2ccccc2)nc2c(C)noc12	inactive
Cc1ccc(-n2ncc3c(N4CCCC4)ncnc32)c(C)c1	inactive

Structure (SMILES)	Potency
CCOC(=O)Oc1ccc2c(=O)c(Oc3cccc(C)c3)c(C(F)(F)F)oc2c1	inconclusive: 10 µM [inhibitor, full curve, poor fit]
CC(C)CC(NC(=O)OCc1ccccc1)C(=O)NC(C)C(=O)O (stereo not drawn)	inconclusive: 63.1 µM [inhibitor, partial curve, poor fit]
COc1ccc(-c2nnc(SCC(=O)NC(=O)NCc3ccco3)o2)cc1	inconclusive: 12.6 µM [inhibitor, partial curve, poor fit]
Cc1c(C(=O)O)sc(S(=O)(=O)N2CCN(C(=O)Cc3ccc(F)cc3)CC2)c1C(=O)O	inconclusive: 63.1 µM [inhibitor, partial curve, poor fit]
COc1ccc(CCN2CCC(CN(C)Cc3ccc(C#CCCO)cc3)CC2)cc1	inconclusive: 56.2 µM [inhibitor, partial curve, poor fit]
CC(=O)c1ccc(NC(=O)CSc2cn(CC(=O)N(C(C)C)C(C)C)c3ccccc23)cc1	inactive
Cc1cccc(Nc2ccncc2S(=O)(=O)NC(=O)NC(C)C)c1	inconclusive: 0.769 µM [inhibitor, full curve]
CC(SCc1ccccc1)C(=O)NCc1ccco1 (stereo not drawn)	inconclusive: 5.62 µM [inhibitor, full curve, poor fit]
Cc1ccc2[nH]cc(/C=C/c3cc[n+](C)cc3)c2c1	inconclusive: 50.1 µM [inhibitor, partial curve, poor fit]
CC(C)(C)c1ccc(C(=O)NCc2cc(=O)n3nc(-c4ccccc4)sc3n2)cc1	inconclusive: 126 µM [inhibitor, single point]
CCS(=O)(=O)N1CCc2cc(C(=O)Nc3cccc(C(C)=O)c3)ccc21	inactive
O=C(Nc1ccc(F)cc1)c1csc(C(O)Cc2ccccc2)n1 (stereo not drawn)	inconclusive: 0.708 µM [inhibitor, full curve, poor fit]
O=C(Nc1nc2ccccc2s1)C1CC(=O)N(c2n[nH]c3cccc(F)c23)C1 (stereo not drawn)	inconclusive: 50.1 µM [inhibitor, partial curve]
COc1cccc(/C=N/n2c(COc3ccccc3)n[nH]c2=S)c1	inactive
CCCOc1cccc(C2c3c(-c4ccccc4O)n[nH]c3C(=O)N2Cc2ccco2)c1 (stereo not drawn)	inconclusive: 28.2 µM [inhibitor, partial curve, poor fit]
Cn1nc(C(F)(F)F)c(-c2ccc(F)cc2)c1NC(=O)c1cccnc1	inconclusive: 112 µM [inhibitor, single point]
NS(=O)(=O)c1ccc(N/N=C2/CC3CC=CC23)c([N+](=O)[O-])c1 (stereo not drawn)	inconclusive: 44.7 µM [inhibitor, partial curve]
CC(C)(CNC(=O)Cc1ccc(Cl)cc1Cl)N1CCCCC1	inconclusive: 100 µM [inhibitor, single point]
C[S+](=O)([O-])N1CC2(CCN(Cc3ccc(Cl)cc3)C2)Cc2ccccc21 (stereo not drawn)	active: 44.7 µM
COc1ccc(S(=O)(=O)N2C[C@@H]3C[C@H](C2)c2c(-c4ccc(NC(C)=O)cc4)ccc(=O)n2C3)cc1	inactive

An excerpt from above in order of SMILES length, descending:
Structure (SMILES)	Potency
Cn1nc(C(F)(F)F)c(-c2ccc(F)cc2)c1NC(=O)c1cccnc1	inconclusive: 112 µM [inhibitor, single point]
COc1cccc(/C=N/n2c(COc3ccccc3)n[nH]c2=S)c1	inactive
O=C(Nc1ccc(F)cc1)c1csc(C(O)Cc2ccccc2)n1 (stereo not drawn)	inconclusive: 0.708 µM [inhibitor, full curve, poor fit]
Cc1ccc2[nH]cc(/C=C/c3cc[n+](C)cc3)c2c1	inconclusive: 50.1 µM [inhibitor, partial curve, poor fit]

The listing continues:

Structure (SMILES)	Potency
COCCN(C(=O)COC(=O)/C=C/c1cccc(C(F)(F)F)c1)c1c(N)n(CC(C)C)c(=O)[nH]c1=O	inconclusive: 50.1 µM [inhibitor, partial curve, poor fit]
Cc1cccc(CCN(Cc2cc3cccc(C)c3[nH]c2=O)C(=O)N2CCOCC2)c1	inactive
Cc1ccc(C(=O)NC(=S)NNC(=O)c2ccc([N+](=O)[O-])cc2)cc1	inconclusive: 39.8 µM [inhibitor, partial curve, poor fit]
CCC(=O)N1CCC(CC)(N2CCN(S(=O)(=O)c3ccccc3C(F)(F)F)CC2)C1 (stereo not drawn)	inconclusive: 15.8 µM [inhibitor, full curve]
Cc1cc(C)cc(Nc2nc(C)cc(=O)n2CC(=O)Nc2cccc(C#N)c2)c1	inconclusive: 14.1 µM [inhibitor, full curve]
COc1cccc(C(=O)NC2CCN(c3cc(C(F)(F)F)nc(C)n3)CC2)c1OC	inconclusive: 25.1 µM [inhibitor, full curve, poor fit]
COc1ccc(N2C(=O)C3(CCCCC3)C2C(=O)N2CCN(CC(C)C)CC2)cc1 (stereo not drawn)	inactive
O=C(COC(=O)/C=C/c1cccc(C(F)(F)F)c1)Nc1ccc(Cl)cn1	inactive
COC(=O)C1=C(N)N(c2cccc(C)c2)C2=C(C(=O)CCC2)C1c1ccc2c(c1)OCO2 (stereo not drawn)	inconclusive: 79.4 µM [inhibitor, partial curve, poor fit]
COC(CNC(=O)c1ccc2c(c1)nc(C)n2-c1cccc(C)c1)OC	inactive
NS(=O)(=O)c1ccc(CNC(=O)c2ccccn2)cc1	inconclusive: 35.5 µM [inhibitor, partial curve, poor fit]
O=C(COc1cc(O)c2c(=O)cc(-c3ccccc3)oc2c1)NCc1ccc(F)cc1	inconclusive: 100 µM [inhibitor, single point]
Fc1ccc(-c2csc(Nc3ccccc3)n2)cc1	inconclusive: 31.6 µM [inhibitor, partial curve, poor fit]
O=C(N[C@H]1CCN2C(=O)c3cc(-c4cccs4)ccc3NC(=O)[C@H]12)c1cccc(F)c1	inconclusive: 56.2 µM [inhibitor, partial curve, poor fit]
O=C(c1ccc2[nH]ccc2c1)N1CC[C@@H]2COCCN(Cc3cccnc3)[C@@H]2C1	inconclusive: 17.8 µM [inhibitor, single point]
CC1CCN(S(=O)(=O)c2ccc3nc(NCc4ccccc4)ccc3c2)CC1	inconclusive: 56.2 µM [inhibitor, partial curve, poor fit]
CCSC1=N/C(=C\c2cccc(F)c2)C(=O)S1	inconclusive: 56.2 µM [inhibitor, partial curve, poor fit]
CCN(CC)c1ccc(NC(=O)c2ccccc2OCC(=O)OC)cc1	inconclusive: 50.1 µM [inhibitor, partial curve, poor fit]
CC1CN(c2ncnc3c2oc2ccccc23)CC(C)O1 (stereo not drawn)	inconclusive: 39.8 µM [inhibitor, partial curve, poor fit]
Cc1nnc(SCC(=O)Nc2ccc3c(c2)OCCO3)n1CC1CCCO1 (stereo not drawn)	inactive
O=C(Cn1nc(-c2ccc(Cl)cc2)c2ccccc2c1=O)Nc1cccc(C(F)(F)F)c1	inconclusive: 79.4 µM [inhibitor, single point]

Source: PubChem BioAssay AID1671190 (National Center for Advancing Translational Sciences (NCATS), 2021)
